From patent US20170037136A1
Results are given in words; binding and its absence hold for the method and conditions named. Some results given as binding are weak or reduced against the parent protein; the word gives no strength.

Sequences of proteins named here, by UniProt entry; tags and fusion partners are left off. A change or cut given only in a name is not applied to a line headed by its entry.
UniProt P29965: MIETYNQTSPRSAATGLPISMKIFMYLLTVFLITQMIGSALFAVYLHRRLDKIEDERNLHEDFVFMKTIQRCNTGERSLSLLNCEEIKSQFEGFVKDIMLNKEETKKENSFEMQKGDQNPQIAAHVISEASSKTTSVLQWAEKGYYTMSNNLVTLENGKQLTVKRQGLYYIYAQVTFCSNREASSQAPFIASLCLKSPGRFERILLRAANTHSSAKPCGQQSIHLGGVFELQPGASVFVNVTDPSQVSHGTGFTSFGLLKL

Experiments:
[1] = target: shCD154-his (soluble human CD154, His6 fusion) (human) (UniProt P29965); assay: SPR (ProteOn XPR36) as in Example 1
[2] = target: soluble human CD154 (shCD154) (human) (UniProt P29965); assay: SE-HPLC of antibody with AF488-labelled shCD154 at 1:1 and 10:1 molar ratio

B1: C4LB237 (antibody, V domains shown)
VH: QVQLVQSGAEVKKPGSSVKVSCKASGGTFSSYGISWVRQAPGQGLEWMGWISPIFGNTNYAQKFQGRVTITADESTSTAYMELSSLRSEDTAVYYCARSRYYGDLDYWGQGTLVTVSS
VL: DIQMTQSPSSLSASVGDRVTITCRASQSISSYLNWYQQKPGKAPKLLIYYANSLQSGVPSRFSGSGSGTDFTLTISSLQPEDFATYYCQQSDSIPWTFGQGTKVEIK
binding [1]: binds | binding [2]: binds
